According to article PMC6019494:
Results are given in words; binding and its absence hold for the method and conditions named. For some assays here: In cells and extracts the contact can be indirect. Some binding calls cover weakened binding; strength is not graded here. For some assays here: Where a sequence is shown, tags or fusion partners need not be part of it.

Tests used:
[1] = molecular target: CRC YABBY (CRC-YD), single YABBY domain, YFPC- and YFPN-tagged for BiFC (Arabidopsis thaliana) (UniProt Q8L925); test: split reporter; BiFC with YFPC- and YFPN-tagged CRC variants, transiently co-expressed in leaves of 4 weeks old N. benthamiana plants (A. tumefaciens GV3101); leaf disks with DAPI 2 days after infiltration, fluorescence microscopy
[2] = molecular target: T1, FILAMENTOUS FLOWER (FIL), yeast two-hybrid fusion (Arabidopsis thaliana) (UniProt O22152); test: two-hybrid; GAL4 AD (pGADT7) and BD (pGBKT7) fusions in S. cerevisiae AH109; growth on SD-Leu/-Trp/-His + 3 mM 3-AT and MEL1 based α-galactosidase assay, in triplicates
T1 sequence: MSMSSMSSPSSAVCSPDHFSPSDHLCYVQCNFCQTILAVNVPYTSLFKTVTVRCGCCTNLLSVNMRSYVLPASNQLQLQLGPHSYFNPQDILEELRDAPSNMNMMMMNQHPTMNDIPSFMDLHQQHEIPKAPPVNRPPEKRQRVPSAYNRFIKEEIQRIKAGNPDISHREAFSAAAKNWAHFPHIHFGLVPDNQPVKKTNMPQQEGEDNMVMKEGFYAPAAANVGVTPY

[3] = molecular target: T2, YABBY 2 (YAB2), yeast two-hybrid fusion (Arabidopsis thaliana) (UniProt Q9XFB0); test: as above
T2 sequence: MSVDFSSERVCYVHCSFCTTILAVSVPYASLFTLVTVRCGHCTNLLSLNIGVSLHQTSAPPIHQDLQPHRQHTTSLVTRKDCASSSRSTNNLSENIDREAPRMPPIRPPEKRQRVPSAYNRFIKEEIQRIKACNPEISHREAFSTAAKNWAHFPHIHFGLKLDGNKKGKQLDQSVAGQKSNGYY

[4] = molecular target: T3, YABBY 3 (YAB3), yeast two-hybrid fusion (Arabidopsis thaliana) (UniProt Q9XFB1); test: as above
T3 sequence: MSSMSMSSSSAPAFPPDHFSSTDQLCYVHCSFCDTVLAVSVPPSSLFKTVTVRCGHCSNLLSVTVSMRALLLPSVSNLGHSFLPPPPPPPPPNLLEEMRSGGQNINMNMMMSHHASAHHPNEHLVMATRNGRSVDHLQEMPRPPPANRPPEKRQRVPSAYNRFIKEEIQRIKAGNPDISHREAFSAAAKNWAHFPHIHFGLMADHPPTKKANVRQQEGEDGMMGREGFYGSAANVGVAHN

[5] = molecular target: T4, YABBY 5 (YAB5), yeast two-hybrid fusion (Arabidopsis thaliana) (UniProt Q8GW46); test: as above
T4 sequence: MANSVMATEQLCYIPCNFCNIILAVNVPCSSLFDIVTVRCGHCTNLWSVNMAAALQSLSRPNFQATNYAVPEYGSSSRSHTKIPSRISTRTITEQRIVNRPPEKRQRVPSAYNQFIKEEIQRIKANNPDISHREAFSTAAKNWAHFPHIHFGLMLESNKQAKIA

[6] = molecular target: T5, CRABS CLAW (CRC), full length, yeast two-hybrid fusion (Arabidopsis thaliana) (UniProt Q8L925); test: as above
T5 sequence: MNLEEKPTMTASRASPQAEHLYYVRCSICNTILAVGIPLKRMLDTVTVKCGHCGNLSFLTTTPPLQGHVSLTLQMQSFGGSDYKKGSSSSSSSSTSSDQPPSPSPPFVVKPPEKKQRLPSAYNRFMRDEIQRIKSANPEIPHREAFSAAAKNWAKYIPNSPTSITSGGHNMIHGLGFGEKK

[7] = molecular target: CRC Zinc Finger (CRC-ZF), single zinc finger domain, for BiFC (Arabidopsis thaliana) (UniProt Q8L925); test: split reporter; BiFC with YFPC- and YFPN-tagged CRC variants, transiently co-expressed in leaves of 4 weeks old N. benthamiana plants (A. tumefaciens GV3101); leaf disks with DAPI 2 days after infiltration, fluorescence microscopy
[8] = molecular target: CRC Intermediate (CRC-IM), single intermediate domain, for BiFC (Arabidopsis thaliana) (UniProt Q8L925); test: as above

With VKPPEKKQRLPSAYNRFMRDEIQRIKSANPEIPHREAFSAAAKNWAK (domain or fragment, UniProt Q8L925 109-155) [CRC YABBY (CRC-YD), single YABBY domain, YFPC- and YFPN-tagged for BiFC] the binding [1] was “binds”.

B1: CRABS CLAW (CRC), full length, yeast two-hybrid fusion (protein, UniProt Q8L925 1-181)
chain: T5 sequence
With B1 the binding [2] was “no binding”, the binding [3] was “no binding” and the binding [4] was “no binding”. The binding [5] was “no binding”.

B2: YABBY 3 (YAB3), yeast two-hybrid fusion (protein, UniProt Q9XFB1 1-240)
chain: T3 sequence
For B2, the binding [6] was “no binding”.

B3: YABBY 5 (YAB5), yeast two-hybrid fusion (protein, UniProt Q8GW46 1-164)
chain: T4 sequence
In the case of B3, the binding [6] is reported as “no binding”.

For CSICNTILAVGIPLKRMLDTVTVKCGHC (domain or fragment, UniProt Q8L925 26-53) [CRC Zinc Finger (CRC-ZF), single zinc finger domain, for BiFC], the binding [7] was “no binding”.

B4: CRC Intermediate (CRC-IM), single intermediate domain, for BiFC (domain or fragment, UniProt Q8L925 54-108)
chain: GNLSFLTTTPPLQGHVSLTLQMQSFGGSDYKKGSSSSSSSSTSSDQPPSPSPPFV
For B4, the binding [8] was “no binding”.

B5: FILAMENTOUS FLOWER (FIL), yeast two-hybrid fusion (protein, UniProt O22152 1-229)
chain: T1 sequence
For B5, the binding [6] was “no binding”.

B6: YABBY 2 (YAB2), yeast two-hybrid fusion (protein, UniProt Q9XFB0 1-184)
chain: T2 sequence
In the case of B6, the binding [6] is reported as “no binding”.
